In patent US8614301B2, “Methods of treating cancer using anti CD24 antibodies” (priority 2007, dated 2013):
For at least one compound, name, drawing or mass did not settle the structure. Some results were stated once for a whole list of compounds, not compound by compound.

Tests used:
[1] = tested on: HT29 cells; experiment: Combined anti-CD24 mAb and chemotherapy, methylene-blue viability assay; format: cell-based, human; details: for decrease of the dose of the chemotherapeutic agent allowed by addition of the mAb: SWA11 at 1:100 dilution; for reduction in HT29 cell growth in combined treatment: combined with SWA11, 72 hours
Description: Experiments were performed in duplicates or repeated twice. The Y axes stand for cell viability quantified via methylene-blue assay.
The killing effect of the anti-CD24 antibodies and the chemotherapies was assessed, in-vitro, using a methylene-blue assay: 2.5×10^3 cells/well were plated onto 96-well in 0.2 ml complete medium. On the morrow the media were refreshed with the addition of the indicated reagents, held in incubation for 72 hours. The cells were washed with PBS and then fixed with a 0.2 mL 4% formaldehyde solution for 2 hours at room temperature. The cells were then washed with PBS, incubated with 0.15 mL ribonuclease A (3 μg/mL) for 30 minutes at room temperature, equilibrated with 0.2 mL sodium borate (0.1M, pH 8.5), and stained with 0.2 mL methylene blue (0.5%) for 10 minutes at room temperature. Finally, the cells were thoroughly washed with tap water and cell-bound dye was eluted with 0.2 mL HCl (0.1M). Color intensity was read in an enzyme-linked immunosorbent assay plate reader at 595 nm. SWA11 served as the anti-CD24 antibody.

[2] = tested on: CD24 in transformed enterocytes; details: short (72 hours) and long (six months) exposures; cited from earlier work

With `COc1cccc2c1C(=O)c1c(O)c3c(c(O)c1C2=O)C[C@@](O)(C(=O)CO)C[C@@H]3O[C@H]1C[C@H](N)[C@H](O)[C@H](C)O1` [Doxorubicin] the “decrease of the dose of the chemotherapeutic agent allowed by addition of the mAb” value [1] was “more than 50%” and the “reduction in HT29 cell growth in combined treatment” value [1] was “at least 50%”.
For `CCc1c2c(nc3ccc(OC(=O)N4CCC(N5CCCCC5)CC4)cc13)-c1cc3c(c(=O)n1C2)COC(=O)[C@]3(O)CC` [Irrinotecan], the “decrease of the dose of the chemotherapeutic agent allowed by addition of the mAb” value [1] was “more than 50%” and the “reduction in HT29 cell growth in combined treatment” value [1] was “at least 50%”.
In the case of `Cc1ccc(-c2cc(C(F)(F)F)nn2-c2ccc(S(N)(=O)=O)cc2)cc1` [celecoxib], the CD24 expression [2] is given as “down regulated to a normal level of expression”.
